Measured values taken from publication PMC6436931, “Activation of the Endonuclease that Defines mRNA 3′ Ends Requires Incorporation into an 8-Subunit Core Cleavage and Polyadenylation Factor Complex” (Molecular Cell, 2019).
Where two headings read alike, the source gives them in different places. Results are given in words; binding and its absence hold for the method and conditions named. For some of these results: Binding seen in cells or lysates may run through a third protein. Some binding calls cover weakened binding; strength is not graded here. For some of these results: Sequences can lack the tags named with a protein. One block for each molecule: values may come before it.

The chains behind the UniProt entries cited, without tags or fusion partners.
UniProt P29468: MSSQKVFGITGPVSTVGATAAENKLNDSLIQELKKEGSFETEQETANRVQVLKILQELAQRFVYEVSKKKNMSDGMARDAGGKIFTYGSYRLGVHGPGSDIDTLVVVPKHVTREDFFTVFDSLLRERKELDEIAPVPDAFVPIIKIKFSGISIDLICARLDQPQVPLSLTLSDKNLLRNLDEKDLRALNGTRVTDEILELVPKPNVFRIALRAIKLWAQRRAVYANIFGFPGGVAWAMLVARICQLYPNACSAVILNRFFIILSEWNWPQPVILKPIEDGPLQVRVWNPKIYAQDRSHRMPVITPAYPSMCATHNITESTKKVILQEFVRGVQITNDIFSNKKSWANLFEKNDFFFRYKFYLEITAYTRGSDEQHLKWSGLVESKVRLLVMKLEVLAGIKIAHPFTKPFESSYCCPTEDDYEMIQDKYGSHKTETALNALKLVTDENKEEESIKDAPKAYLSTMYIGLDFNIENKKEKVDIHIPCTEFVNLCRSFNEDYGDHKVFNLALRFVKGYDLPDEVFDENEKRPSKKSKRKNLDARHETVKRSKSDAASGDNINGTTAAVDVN

What was measured:
[1] = molecular target: T1, Pfs2-3C-SII (S. cerevisiae) (UniProt P42841); experiment: co-purification (StrepTactin affinity, anion exchange, size exclusion chromatography); subunits co-expressed in Sf9 cells; complex captured by the one StrepII-tagged subunit, Mono Q 100-1000 mM NaCl gradient, Superose 6 Increase in 10 mM HEPES pH 7.9, 150 mM NaCl, 1.0 mM TCEP; SDS-PAGE; both purified
T1 sequence: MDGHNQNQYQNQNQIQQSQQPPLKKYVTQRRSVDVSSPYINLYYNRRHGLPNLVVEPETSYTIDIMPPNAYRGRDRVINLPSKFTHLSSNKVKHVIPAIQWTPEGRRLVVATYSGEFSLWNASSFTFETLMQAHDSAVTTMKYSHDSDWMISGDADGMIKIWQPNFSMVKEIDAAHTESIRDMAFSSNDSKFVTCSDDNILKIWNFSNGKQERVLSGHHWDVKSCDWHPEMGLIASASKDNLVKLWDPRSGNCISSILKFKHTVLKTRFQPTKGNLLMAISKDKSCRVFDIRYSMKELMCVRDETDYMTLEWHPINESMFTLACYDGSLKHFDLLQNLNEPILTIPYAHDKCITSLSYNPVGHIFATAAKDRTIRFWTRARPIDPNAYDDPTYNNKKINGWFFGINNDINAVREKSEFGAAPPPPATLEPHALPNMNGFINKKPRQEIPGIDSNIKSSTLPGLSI

[2] = molecular target: T2, Ysh1 (full length, untagged) (S. cerevisiae) (UniProt Q06224); experiment: as above
T2 sequence: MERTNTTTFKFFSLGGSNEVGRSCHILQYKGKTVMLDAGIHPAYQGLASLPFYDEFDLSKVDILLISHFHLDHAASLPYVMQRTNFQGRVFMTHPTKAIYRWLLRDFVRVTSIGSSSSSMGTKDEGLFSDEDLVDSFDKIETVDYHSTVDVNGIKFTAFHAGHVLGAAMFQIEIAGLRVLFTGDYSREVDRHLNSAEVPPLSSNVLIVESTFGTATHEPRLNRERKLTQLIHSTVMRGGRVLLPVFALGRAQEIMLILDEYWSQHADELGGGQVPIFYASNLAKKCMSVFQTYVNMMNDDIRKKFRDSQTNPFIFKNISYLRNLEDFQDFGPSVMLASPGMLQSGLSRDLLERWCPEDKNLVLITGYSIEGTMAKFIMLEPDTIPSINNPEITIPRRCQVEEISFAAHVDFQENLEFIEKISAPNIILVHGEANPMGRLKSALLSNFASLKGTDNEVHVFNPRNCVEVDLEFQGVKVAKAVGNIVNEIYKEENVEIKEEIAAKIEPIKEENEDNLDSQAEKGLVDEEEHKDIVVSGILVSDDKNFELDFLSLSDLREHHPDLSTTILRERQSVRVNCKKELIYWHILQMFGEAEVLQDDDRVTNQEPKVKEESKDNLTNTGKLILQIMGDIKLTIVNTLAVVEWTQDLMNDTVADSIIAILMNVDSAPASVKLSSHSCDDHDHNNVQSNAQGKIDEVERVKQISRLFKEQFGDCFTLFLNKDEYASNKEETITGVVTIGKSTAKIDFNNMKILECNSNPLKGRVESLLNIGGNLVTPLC

[3] = molecular target: T2, Ysh1 (full length, untagged) (S. cerevisiae); experiment: cross-linking; purified Ysh1-Mpe1, Ysh1-Yjr141w and Ysh1-Mpe1-Yjr141w complexes cross-linked with DSBU (BuUrBu) or DSS H12/D12, 45 min, 37°C, 100- or 50-fold excess; trypsin digest, LC-MS/MS; both purified
[4] = molecular target: T2, Ysh1 (full length, untagged) (S. cerevisiae); experiment: HDX-MS; purified Ysh1-Mpe1, Ysh1-Yjr141w and Ysh1-Mpe1-Yjr141w complexes; ~95% D2O, 10 mM HEPES pH 7.9, 150 mM NaCl, 1 mM TCEP, 23°C; 0.3, 3, 30 and 300 s in triplicate; difference plots of Ysh1 peptides with and without a partner; both purified
[5] = molecular target: T1, Pfs2-3C-SII (S. cerevisiae); experiment: co-purification (StrepTactin affinity, anion exchange, size exclusion chromatography); subunits co-expressed in Sf9 cells; complex captured by the one StrepII-tagged subunit, Mono Q 100-1000 mM NaCl gradient, Superose 6 Increase in 10 mM HEPES pH 7.9, 150 mM NaCl, 1.0 mM TCEP; SDS-PAGE; both purified; remark: listed apart in the source
[6] = molecular target: T3, Mpe1-3C-SII (full length, C-terminal StrepII tag) (S. cerevisiae) (UniProt P35728); experiment: pull-down; pairs of Ysh1 and Mpe1 constructs co-expressed with full-length Cft2 in insect cells (baculovirus); StrepII-tagged Mpe1 constructs captured from cell lysates on Strep-Tactin resin; SDS-PAGE
T3 sequence: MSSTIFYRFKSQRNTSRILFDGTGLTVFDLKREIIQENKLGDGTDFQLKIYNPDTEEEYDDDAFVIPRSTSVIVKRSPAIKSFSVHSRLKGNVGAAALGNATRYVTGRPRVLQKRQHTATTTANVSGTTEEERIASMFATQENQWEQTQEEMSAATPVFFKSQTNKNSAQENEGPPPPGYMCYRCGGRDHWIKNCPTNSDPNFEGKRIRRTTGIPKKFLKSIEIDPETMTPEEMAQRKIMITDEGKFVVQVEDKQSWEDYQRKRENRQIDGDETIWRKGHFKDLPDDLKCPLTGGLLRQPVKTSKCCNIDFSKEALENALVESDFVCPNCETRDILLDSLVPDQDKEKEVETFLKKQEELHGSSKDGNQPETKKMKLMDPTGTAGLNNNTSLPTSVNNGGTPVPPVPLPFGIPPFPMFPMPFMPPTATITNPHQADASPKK

[7] = molecular target: T3, Mpe1-3C-SII (full length, C-terminal StrepII tag) (S. cerevisiae); experiment: anion exchange chromatography; complexes identified by the Strep-Tactin pull-down subjected to anion exchange chromatography; SDS-PAGE of what stayed associated; both purified

binding [1]: binds
Molecule: Pap1 (untagged, in CPF_(core)) (from UniProt P29468 1-568) (enzyme)

binding [2]: binds | binding [3]: binds | binding [4]: binds
B1: Yjr141w (untagged, in the Ysh1-Mpe1-Yjr141w trimer) (protein, UniProt P47172 1-347)
chain: MVQYVVEWLPRIQSISVVVEGWKQVEIKNLKDTLMSISGDEEQVEDILLPVEVEEKVDASYKFKNRGKDLEWMTKLRSKSSKIYDSSIMSLPDGRWTKEELRSDSDFSIECLNCKQKIISKDNCQVLNDMPSEFWFELMDYWHCHKPDVKEDKSSYTRFETLKPSKNEILIGSSYFQGTPATFENVATTKENDNVLCIKCSAVLGQVTAGSLYKLHKWKLQLIRSGNTYKFPPECDITISLINVVKANSCRYVLVKCKTESLLVWIFSVDIGVTLTGNKSFKRAMKLLYTNSVTTINRCLNRQVVEELDFQETSFNAFYSALQHTNALLPSSMKKIGEWTISYTSLI

binding [5]: binds
B2: Mpe1 (untagged, in CPF_(core)) (protein, UniProt P35728 1-441)
chain: MSSTIFYRFKSQRNTSRILFDGTGLTVFDLKREIIQENKLGDGTDFQLKIYNPDTEEEYDDDAFVIPRSTSVIVKRSPAIKSFSVHSRLKGNVGAAALGNATRYVTGRPRVLQKRQHTATTTANVSGTTEEERIASMFATQENQWEQTQEEMSAATPVFFKSQTNKNSAQENEGPPPPGYMCYRCGGRDHWIKNCPTNSDPNFEGKRIRRTTGIPKKFLKSIEIDPETMTPEEMAQRKIMITDEGKFVVQVEDKQSWEDYQRKRENRQIDGDETIWRKGHFKDLPDDLKCPLTGGLLRQPVKTSKCCNIDFSKEALENALVESDFVCPNCETRDILLDSLVPDQDKEKEVETFLKKQEELHGSSKDGNQPETKKMKLMDPTGTAGLNNNTSLPTSVNNGGTPVPPVPLPFGIPPFPMFPMPFMPPTATITNPHQADASPKK

binding [5]: binds
B3: Yth1-3C-8H (protein, UniProt Q06102 1-208)
chain: MSLIHPDTAKYPFKFEPFLRQEYSFSLDPDRPICEFYNSREGPKSCPRGPLCPKKHVLPIFQNKIVCRHWLRGLCKKNDQCEYLHEYNLRKMPECVFFSKNGYCTQSPDCQYLHIDPASKIPKCENYEMGFCPLGSSCPRRHIKKVFCQRYMTGFCPLGKDECDMEHPQFIIPDEGSKLRIKRDDEINTRKMDEEKERRLNAIINGEV

binding [6]: binds | binding [7]: binds
B4: Ysh1-N (1-474), N-terminal catalytic domain (domain or fragment, UniProt Q06224 1-474)
chain: MERTNTTTFKFFSLGGSNEVGRSCHILQYKGKTVMLDAGIHPAYQGLASLPFYDEFDLSKVDILLISHFHLDHAASLPYVMQRTNFQGRVFMTHPTKAIYRWLLRDFVRVTSIGSSSSSMGTKDEGLFSDEDLVDSFDKIETVDYHSTVDVNGIKFTAFHAGHVLGAAMFQIEIAGLRVLFTGDYSREVDRHLNSAEVPPLSSNVLIVESTFGTATHEPRLNRERKLTQLIHSTVMRGGRVLLPVFALGRAQEIMLILDEYWSQHADELGGGQVPIFYASNLAKKCMSVFQTYVNMMNDDIRKKFRDSQTNPFIFKNISYLRNLEDFQDFGPSVMLASPGMLQSGLSRDLLERWCPEDKNLVLITGYSIEGTMAKFIMLEPDTIPSINNPEITIPRRCQVEEISFAAHVDFQENLEFIEKISAPNIILVHGEANPMGRLKSALLSNFASLKGTDNEVHVFNPRNCVEVDLEFQG

binding [5]: binds
B5: Fip1 (protein, UniProt P45976 1-327)
chain: MSSSEDEDDKFLYGSDSELALPSSKRSRDDEADAGASSNPDIVKRQKFDSPVEETPATARDDRSDEDIYSDSSDDDSDSDLEVIISLGPDPTRLDAKLLDSYSTAATSSSKDVISVATDVSNTITKTSDERLITEGEANQGVTATTVKATESDGNVPKAMTGSIDLDKEGIFDSVGITTIDPEVLKEKPWRQPGANLSDYFNYGFNEFTWMEYLHRQEKLQQDYNPRRILMGLLSLQQQGKLNSANDTDSNLGNIIDNNNNVNNANMSNLNSNMGNSMSGTPNPPAPPMHPSFPPLPMFGSFPPFPMPGMMPPMNQQPNQNQNQNSK

binding [5]: binds
B6: Cft1 (protein, UniProt Q06632 1-1357)
chain: MNVYDDVLDATVVSHSLATHFTTSDYEELLVVRTNILSVYRPTRDGKLYLTDEFKFHGLITDIGLIPQKDSPLSCLLLCTGVAKISILKFNTLTNSIDTLSLHYYEGKFKGKSLVELAKISTLRMDPGSSCALLFNNDIIAFLPFHVNKNDDDEEEEDEDENIDDSELIHSMNQKSQGTNTFNKRKRTKLGDKFTAPSVVLVASELYEGAKNIIDIQFLKNFTKPTIALLYQPKLVWAGNTTISKLPTQYVILTLNIQPAESATKIESTTIAFVKELPWDLHTIVPVSNGAIIVGTNELAFLDNTGVLQSTVLLNSFADKELQKTKIINNSSLEIMFREKNTTSIWIPSSKSKNGGSNNDETLLLMDLKSNIYYIQMEAEGRLLIKFDIFKLPIVNDLLKENSNPKCITRLNATNSNKNMDLFIGFGSGNALVLRLNNLKSTIETREAHNPSSGTNSLMDINDDDDEEMDDLYADEAPENGLTTNDSKGTVETVQPFDIELLSSLRNVGPITSLTVGKVSSIDDVVKGLPNPNKNEYSLVATSGNGSGSHLTVIQTSVQPEIELALKFISITQIWNLKIKGRDRYLITTDSTKSRSDIYESDNNFKLHKGGRLRRDATTVYISMFGEEKRIIQVTTNHLYLYDTHFRRLTTIKFDYEVIHVSVMDPYILVTVSRGDIKIFELEEKNKRKLLKVDLPEILNEMVITSGLILKSNMCNEFLIGLSKSQEEQLLFTFVTADNQIIFFTKDHNDRIFQLNGVDQLNESLYISTYQLGDEIVPDPSIKQVMINKLGHDNKEEYLTILTFGGEIYQYRKLPQRRSRFYRNVTRNDLAITGAPDNAYAKGVSSIERIMHYFPDYNGYSVIFVTGSVPYILIKEDDSTPKIFKFGNIPLVSVTPWSERSVMCVDDIKNARVYTLTTDNMYYGNKLPLKQIKISNVLDDYKTLQKLVYHERAQLFLVSYCKRVPYEALGEDGEKVIGYDENVPHAEGFQSGILLINPKSWKVIDKIDFPKNSVVNEMRSSMIQINSKTKRKREYIIAGVANATTEDTPPTGAFHIYDVIEVVPEPGKPDTNYKLKEIFQEEVSGTVSTVCEVSGRFMISQSQKVLVRDIQEDNSVIPVAFLDIPVFVTDSKSFGNLLIIGDAMQGFQFIGFDAEPYRMISLGRSMSKFQTMSLEFLVNGGDMYFAATDADRNVHVLKYAPDEPNSLSGQRLVHCSSFTLHSTNSCMMLLPRNEEFGSPQVPSFQNVGGQVDGSVFKIVPLSEEKYRRLYVIQQQIIDRELQLGGLNPRMERLANDFYQMGHSMRPMLDFNVIRRFCGLAIDRRKSIAQKAGRHAHFEAWRDIINIEFSMRSLCQGK
